# Percent effect of library compounds

Sequences of proteins named here, by UniProt entry; tags and fusion partners are left off. Residues count along the entry.
UniProt Q8IDJ8, 1-583: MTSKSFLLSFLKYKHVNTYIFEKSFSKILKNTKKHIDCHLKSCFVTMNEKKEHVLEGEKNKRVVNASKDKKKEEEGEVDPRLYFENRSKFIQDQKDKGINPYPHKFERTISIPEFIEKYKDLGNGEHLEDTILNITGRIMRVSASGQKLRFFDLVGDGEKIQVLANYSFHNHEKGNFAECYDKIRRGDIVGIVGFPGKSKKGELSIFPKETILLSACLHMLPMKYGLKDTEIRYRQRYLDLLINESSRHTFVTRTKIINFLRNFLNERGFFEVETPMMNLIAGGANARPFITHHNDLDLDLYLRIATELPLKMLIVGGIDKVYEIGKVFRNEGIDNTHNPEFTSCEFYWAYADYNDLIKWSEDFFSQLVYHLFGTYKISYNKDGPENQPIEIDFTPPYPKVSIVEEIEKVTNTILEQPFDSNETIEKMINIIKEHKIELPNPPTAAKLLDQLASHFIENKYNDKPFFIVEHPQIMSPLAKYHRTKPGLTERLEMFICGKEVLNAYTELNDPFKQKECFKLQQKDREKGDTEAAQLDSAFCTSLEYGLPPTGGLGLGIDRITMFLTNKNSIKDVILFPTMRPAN

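Enzyme assay of the cytosolic lysyl-tRNA synthetase in 384-well plates, read by luminescence. Target: Lysine-tRNA ligase, Plasmodium falciparum 3D7 (UniProt Q8IDJ8). Compounds at 30 µM. Higher reads as stronger inhibition, judged from the few compounds that gave an IC50. Of about 69,000 compounds tested this way, about 49 (0.071%) reached 50% or more in at least one test.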

Values are the deposited “Percent Effect”, in %.
The controls that fix the scale are not given in the record; negative values are as filed.
This is an unselected part of the compounds tested.

structure,percent effect
Cc1csc(CN(C)C2CCN(c3sccc3C#N)C2=O)n1 (stereo not given),-3.199
O=C1CNc2ncnc(Nc3cnn(Cc4ccc(F)cc4)c3)c2N1,-3.318
Cc1nn(C)c2c(N3CCN(C(=O)C4CC4)CC3)ncnc12,-3.764
O=C(Nc1ccc(Cl)cn1)C1CCCN(Cc2ccccn2)C1 (stereo not given),1.924
CCOCc1nc2c(c(NC(CC)c3cccnc3)n1)CCNCC2 (stereo not given),4.055
N#CC1CCN(C(=O)NCCc2ccc(Cl)s2)CC1,0.1951
CCc1nc(CN2CCCN(c3ncnc4sccc34)CC2)no1,1.333
Cc1ccc(-c2nc(CN3CCOC(Cn4cncn4)C3)cs2)o1 (stereo not given),4.492
O=C(c1ccnc(C2CCNCC2)c1)N1CCCC1,-2.438
Cc1noc([C@@]23CCO[C@@H]2CCN(C(=O)CN(C)C)C3)n1,0.7664
Cc1c(C)n(Cc2ccncc2)c2nc3c(c(N)c12)CCCCC3,6.076
COc1ccc(C)c2c1N(C(=O)c1ccc3nnc(C)n3c1)CCC2,5.967
Cc1nc(N2CCCC2)nc(C)c1NS(=O)(=O)c1ccccc1F,0.8262
CCN(CC)C(=O)C(c1ccccc1)N1CCn2c(C)nnc2C1 (stereo not given),2.133
CCC(CC)C(=O)N1CCOC2(CNC2)C1,4.336
Cc1ncsc1CCN(C)C(=O)CCc1nc2cccnc2n1C,8.374
Cc1nc(N2CCOCC2)nc2c1CCN(Cc1cccnc1)CC2,6.241
Cc1nc(C)c(CC(=O)N2C[C@H]3CC[C@@H]2CN(c2cnccn2)C3)s1,5.311
Cc1cccc(C)c1OC1CN(Cc2cnn(C)c2)C1,2.148
CCc1cnc(CN(C)C(C)C(=O)N2CCc3ccccc3C2)s1 (stereo not given),5.828
COCC[C@]1(O)CCN(C(=O)c2cnn(C)c2)C[C@H]1C,1.364
Nc1nc2c(c(NC(Cn3cccn3)c3ccccc3)n1)CCNCC2 (stereo not given),2.506
Cc1nn(CCn2ccnc2-c2cc3n(n2)CCCNC3)c(C)c1Cl,-0.4672
O=C(NCCn1ccnc1)N1CCN(Cc2cccs2)CC1,4.25
Cc1nccn1-c1ccc(CN2CC3C[C@@H](O)CN3C[C@@H]2C)cc1 (stereo not given in full),2.237
COc1ccc(CN2CCN(CC3CC3)[C@@H]3CS(=O)(=O)C[C@@H]32)cc1C,2.714
Clc1ccc(CN2CCC(C3CCN(Cc4cccnc4)CC3)C2)cc1 (stereo not given),-3.007
CC(=O)c1cc(Br)cc(F)c1OCC(=O)NC1CC1,1.491
c1cc(CN2CC[C@H]3C[C@H](c4nc(C5CC5)cs4)O[C@@H]3C2)ccn1,7.139
Cc1nc(CNC(=O)Nc2ccc3c(c2)CCCN3C)sc1C,0.3008
CC(C)c1nn(C)c(N(C)C)c1CNCCC(=O)NC1CCCCC1,-2.114
Cc1ccc(C(=O)N2CCc3ncc(Cn4cccn4)n3CC2)cn1,5.449
COc1nn(C)c2c1CCCN(S(=O)(=O)c1cccc(F)c1)C2,7.33
NCc1cn(CC2CCCN(C(=O)NCc3ccc(Cl)cc3)C2)nn1 (stereo not given),0.9341
CC(C)COC(C)C(=O)NCc1ccccc1Cn1ccnc1 (stereo not given),-2.177
O=C(N1CCCC1)N1CC[C@H]2OCC[C@@]2(COc2ncccc2F)C1,0.7625
CCCC(=O)N1CCOC2(COCCN(CC(=O)NC)C2)C1 (stereo not given),2.216
COc1cc(N2CCC(c3nccn3Cc3ccccc3)CC2)ncn1,2.6
Cc1ccccc1C(=O)N1CC[C@H](O)[C@@H](N2CCOCC2)CC1,1.401
CCN(C)C[C@@H]1CN(S(=O)(=O)c2ccc(C#N)cc2)C[C@@H]1CO,1.65
CN(Cc1ccc(F)c(F)c1)C(=O)CCc1nc(-c2nnc[nH]2)no1,10.01
Cc1ccc(CN2CC[C@H]3NC(=O)CC[C@@H]32)o1,5.381
O=C(c1cccnc1O)N1CCC2(CCCO2)CC1,3.003
COC(=O)CCn1ccc(=O)c2ccccc21,5.985
O=C(CN1C(=O)c2ccccc2C1=O)N1CCOC2(CCOCC2)C1,1.489
Cc1nccn1CCC1CCCCN1Cc1cccc(CCN)c1 (stereo not given),6.785
O=C(Nc1ncc[nH]1)c1cc(-c2cccnc2)n[nH]1,3.259
CCN(CC)c1ccc(NS(=O)(=O)c2cnn(C(C)C)c2)cn1,-1.64
CN(Cc1nnc(-c2ccco2)o1)CC1CCCN1c1cccnn1 (stereo not given),0.7092
CC(NC(=O)Nc1ccccc1CN1CCOCC1)c1nnc(N)s1 (stereo not given),7.998
Cn1cnc2c(N3CCCC3)nc(C3CCN(CC4CC4)CC3)cc21,0.0371
CCCn1c(SCC(N)=O)nnc1-c1csc2c1CCCC2,9.381
c1cn(-c2cncc(C3CCNCC3)n2)cn1,-0.1152
CCOc1ncccc1CNC(=O)c1cccc(C)n1,1.8
Cc1nn(C)c(N(C)C)c1CNCc1cccnc1-n1cncn1,6.944
CCc1nnc(Nc2cc(C)nc(C3CN(C(=O)C(C)C)CCO3)c2)s1 (stereo not given),0.9428
CC1CCN(C)c2ccccc2N1C(=O)c1ccnc(-n2cncn2)c1 (stereo not given),7.612
Cc1cccc(C)c1OCCNC(=O)C(C)n1cncn1 (stereo not given),2.052
CN(C)CCN1CCO[C@H]2CN(Cc3cnn(C)c3)C[C@H]21,5.324
CNS(=O)(=O)c1ccc(C(=O)Nc2ccc3c(c2)C(=O)NC3)cc1,1.014
O=C(NC1=NCCCN1c1ccc(Cl)cc1)c1cccc(Cl)c1,-8.142
COc1ccc(CN2CCC3(CC2)CCN(c2ncccn2)CC3)cc1,2.061
Cc1cc(C)cc(C2(C(=O)NCC3CCN(CC(F)(F)F)C3)CC2)c1 (stereo not given),1.871
CC(C)CN1C[C@H]2CCN(C(=O)NC3CCCC3)CC[C@H]2S1(=O)=O,0.5691
CC(C)CC(C#N)NC(=O)COC1CCCCC1 (stereo not given),4.581
Cn1cc(CC(=O)N2CCCC(c3ccn[nH]3)C2)cn1 (stereo not given),3.8
COc1c(C2CCCN2C(=O)c2cncnc2C)c(C)nn1C (stereo not given),-7.276
Cc1noc(C)c1CCC(=O)N[C@@H]1CCC[C@@H](Oc2cccnc2)[C@@H]1O,-0.6974
CCN1Cc2cc(F)ccc2N(C(C)=O)CCC1=O,3.103
O=C(c1cnccn1)N1CC[C@@H]2CO[C@@H](CN3CCCC3)[C@@H]2C1,3.422
CC(C)N1CCC2(CC1)NC(=O)c1cc(Br)ccc1-n1nnnc12,-1.371
COc1cc(N2CCC3(CC2)CC(N2CCOCC2)CO3)ncn1 (stereo not given),5.323
COc1ccc(-c2noc(Cn3cc4c(n3)CCC4)n2)c(OC)c1OC,6.669
Cc1cc(C)nc(C2CCN(C(=O)CCn3ncc4ccccc43)C2)n1 (stereo not given),1.398
COc1cc(C)ccc1OCC(=O)Nc1ccnc(OCCN(C)C)c1,-1.153
CN1CCN(CC2CC2)C(=O)c2cnc(N3CCCC3)nc21,-2.74
CCc1nc2ccccc2c(=O)n1CC1(O)CCNCC1,-0.3878
O=C(CCn1cnc2cc(F)c(F)cc21)N1CCN(C2CC2)CC1,3.415
CCc1ccc(CNC[C@H]2C[C@@H](CO)N(C)[C@H]2c2ccccc2F)o1,10.43
Cn1ccnc1C(O)c1ccccc1N1CCN(Cc2ccsc2)CC1 (stereo not given),-0.5377

For reference, 10 entries once more:

structure	percent effect
Cc1nn(C)c(N(C)C)c1CNCc1cccnc1-n1cncn1	6.944
COC(=O)CCn1ccc(=O)c2ccccc21	5.985
Cn1ccnc1C(O)c1ccccc1N1CCN(Cc2ccsc2)CC1 (stereo not given)	-0.5377
O=C(CCn1cnc2cc(F)c(F)cc21)N1CCN(C2CC2)CC1	3.415
Cc1nc(N2CCCC2)nc(C)c1NS(=O)(=O)c1ccccc1F	0.8262
Cc1ccc(CN2CC[C@H]3NC(=O)CC[C@@H]32)o1	5.381
O=C(N1CCCC1)N1CC[C@H]2OCC[C@@]2(COc2ncccc2F)C1	0.7625
O=C(Nc1ccc(Cl)cn1)C1CCCN(Cc2ccccn2)C1 (stereo not given)	1.924
CC(NC(=O)Nc1ccccc1CN1CCOCC1)c1nnc(N)s1 (stereo not given)	7.998
CC(C)CN1C[C@H]2CCN(C(=O)NC3CCCC3)CC[C@H]2S1(=O)=O	0.5691

The values are deposited in ChEMBL (CHEMBL3988442, “University of Dundee, Small-Polar-MMV Screening Library” (2021)).